Tested on: Epstein-Barr virus (EBV)

For `CO[C@@H]1[C@H](N(C)C(=O)c2ccccc2)C[C@H]2O[C@]1(C)n1c3ccccc3c3c4c(c5c6ccccc6n2c5c31)C(=O)NC4` [PKC-412], the “TI (therapeutic index, CC50/IC50 ratio)” value was 2.

Reference: publication PMC3513622 (Antiviral research, 2012)
